No constants are given. Whether binding was seen depends on the method and setting. Binding seen in cells or lysates may run through a third protein. Some binding calls cover weakened binding; strength is not graded here.

The chains behind the UniProt entries cited, without tags or fusion partners.
UniProt Q9UF56: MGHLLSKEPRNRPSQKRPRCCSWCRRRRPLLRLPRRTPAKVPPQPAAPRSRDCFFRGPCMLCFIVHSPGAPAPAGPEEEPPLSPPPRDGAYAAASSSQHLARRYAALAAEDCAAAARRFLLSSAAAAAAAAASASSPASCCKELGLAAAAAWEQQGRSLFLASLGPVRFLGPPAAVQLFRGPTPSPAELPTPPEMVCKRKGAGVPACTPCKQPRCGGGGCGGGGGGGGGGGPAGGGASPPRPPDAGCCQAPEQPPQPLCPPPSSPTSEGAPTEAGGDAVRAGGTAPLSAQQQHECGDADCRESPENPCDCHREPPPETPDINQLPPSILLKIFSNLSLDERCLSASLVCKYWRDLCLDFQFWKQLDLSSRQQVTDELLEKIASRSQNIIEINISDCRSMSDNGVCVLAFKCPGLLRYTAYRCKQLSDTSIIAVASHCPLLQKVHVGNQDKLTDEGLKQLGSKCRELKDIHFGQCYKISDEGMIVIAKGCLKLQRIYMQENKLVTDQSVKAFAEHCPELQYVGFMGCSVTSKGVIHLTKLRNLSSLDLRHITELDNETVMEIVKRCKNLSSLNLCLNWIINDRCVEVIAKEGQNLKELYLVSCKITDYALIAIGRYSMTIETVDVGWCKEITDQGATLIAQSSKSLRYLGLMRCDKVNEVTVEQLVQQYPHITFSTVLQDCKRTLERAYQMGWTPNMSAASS
UniProt P63208: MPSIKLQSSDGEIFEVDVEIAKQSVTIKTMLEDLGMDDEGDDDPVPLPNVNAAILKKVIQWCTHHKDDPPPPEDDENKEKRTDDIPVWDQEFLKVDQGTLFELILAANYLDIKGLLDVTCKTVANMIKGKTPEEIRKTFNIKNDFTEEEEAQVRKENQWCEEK

This note sets out measurements from publication PMC6837540.

The target in the assay is FLAG-Fbxl17 (UniProt Q9UF56). As to the kind of experiment: co-IP; HEK293T transfected with Skp1, Cul1, Myc-Rbx1 and FLAG-Fbxl17; lysis in 25 mM Tris-HCl pH 7.5, 225 mM KCl, 1% NP-40; Anti-FLAG M2 Affinity Gel 5 hours at 4°C, eluted with FLAG peptide; immunoblot. Background: A western blot detects proteins with antibodies after separation by electrophoresis.

Take Skp1 (from UniProt P63208 1-163): the binding entry was “binds”.
